Source: ChEMBL document CHEMBL3988442, “University of Dundee, Small-Polar-MMV Screening Library” (2021).

Mtb growth Cornell: 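Whole-cell assay for inhibitors of Mycobacterium tuberculosis growth, labelled Cornell in the record; the read-out is not stated. The concentration is filed as 10 mM, unlikely as a test dose, so the dose is not known. The record gives no direction; compounds strong in two other growth screens of this library score well above the rest, so higher reads as stronger inhibition. Size under these conditions: about 53,000 compounds, about 900 of them at 50% or above in at least one test.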
Mtb heat-shock: 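Assay on Mycobacterium tuberculosis, filed only as a heat shock assay from Cornell; the read-out is not stated. The concentration is filed as 10 mM, unlikely as a test dose, so the dose is not known. Higher reads as stronger inhibition (inferred: compounds with an IC50 in retests scored well above the rest). Size under these conditions: about 69,000 compounds, about 930 of them at 50% or above in at least one test.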

The filed quantity is “Percent Effect” (%).
The controls that fix the scale are not given in the record; negative values are as filed.
Compounds were drawn at random from those tested, without regard to their results.

* CS(=O)(=O)N1CCC2(CC1)CN(CCn1cccn1)C(=O)CO2 : Mtb growth Cornell: -17.23%; Mtb heat-shock: -2.767%
* CC(C)n1c(=O)nc2n1C(=O)N(c1ccc(Br)cc1)C2 : Mtb growth Cornell: 17.32%; Mtb heat-shock: 17.46%
* CCCc1nc(N2CCN(CC)CC2)c2c(n1)c(C)nn2CC : Mtb growth Cornell: 19.74%; Mtb heat-shock: -31.53%
* [H][C@@]12CCN(S(C)(=O)=O)C[C@@]1([H])O[C@H](c1ccnc(C)n1)C2 : Mtb growth Cornell: -22.08%; Mtb heat-shock: 7.506%
* O=C(c1ccc[nH]1)N1CCC2(CC1)COCCN(c1nccs1)C2 : Mtb growth Cornell: 15.97%; Mtb heat-shock: -1.895%
* CCn1nc2c(cc1=O)CN(CCCN1CCCC1=O)CC2 : Mtb heat-shock: -14.65%
* CCc1cnc(N2CCN(Cc3ccon3)CC2)s1 : Mtb growth Cornell: 42.68%; Mtb heat-shock: 5.669%
* CC(C)c1n[nH]c(C2CN(C(=O)Cn3ccccc3=O)CCO2)n1 (configuration not stated) : Mtb growth Cornell: -65.35%; Mtb heat-shock: 5.606%
* O=C(O)C(F)(F)F.[H][C@@]12CN(CCOC)C[C@]1([H])[C@@H](OC)CCN2C(=O)Cc1ccsc1 : Mtb growth Cornell: 11.21%; Mtb heat-shock: -5.727%
* COc1ccccc1N1CCN(CC[C@H](O)c2ccccc2)CC1=O : Mtb heat-shock: 2.991%
* O=C(O)C(F)(F)F.[H][C@]12CCN(c3ccc(C)nn3)[C@@]1([H])CCC(=O)N2CCN1CCOCC1 : Mtb growth Cornell: 33.99%; Mtb heat-shock: -8.862%
* O=C(NCc1nc(NC2CCCC2)c2cc(Cl)ccc2n1)c1ccoc1 : Mtb heat-shock: 2.63%
* c1cc(NCc2ccsc2)cc(-c2nnc[nH]2)c1 : Mtb heat-shock: 22.85%
* CCn1cnnc1CNC(=O)c1cc(F)ccc1OC : Mtb growth Cornell: -31.13%; Mtb heat-shock: 1.795%
* COCC(=O)NCCn1nc(-c2cc(C)oc2C)ccc1=O : Mtb growth Cornell: -3.641%; Mtb heat-shock: -7.803%
* O=S(=O)(CC1CCCCC1)NCc1ccc(O)nc1 : Mtb heat-shock: 11.04%
* CCOCC(=O)N1CCC(c2cc3ncccc3c(O)n2)CC1 : Mtb growth Cornell: -57.95%; Mtb heat-shock: -9.964%
* NC(=O)C1CCN(C(=O)c2ccc(Sc3ccccn3)cc2)CC1 : Mtb growth Cornell: 21.24%; Mtb heat-shock: 6.378%
* COCCN1CCN(c2ccc3ccc(C(=O)NC4CC4)cn23)CC1 : Mtb growth Cornell: -55.7%; Mtb heat-shock: -14.38%
* O=C(O)C(F)(F)F.c1cnc(N2CC3(CCN(CC4CCOC4)CC3)c3ccccc32)nc1 (configuration not stated) : Mtb growth Cornell: 19.62%; Mtb heat-shock: -8.633%
* Cc1cc(C)c2ncn(CC(C)(C)CO)c(=O)c2c1 : Mtb growth Cornell: 1.744%; Mtb heat-shock: 8.225%
* CC(C)(C)c1noc(CCCC(=O)N2CCCC(c3ccn[nH]3)C2)n1 (configuration not stated) : Mtb growth Cornell: -13.97%; Mtb heat-shock: -20.38%
* COc1cc(C)ccc1OCCC(=O)N1CCCC1Cn1cccn1 (configuration not stated) : Mtb growth Cornell: 28.93%; Mtb heat-shock: -35.14%
* CC(C)Cn1ccnc1CNC(=O)N1CCCC1CN1CCOCC1 (configuration not stated) : Mtb growth Cornell: 7.761%; Mtb heat-shock: -8.507%
* O=C(O)C(F)(F)F.O=C(c1cocn1)N1CCC2(CC1)CC(Oc1ccccn1)CO2 (configuration not stated) : Mtb growth Cornell: -19.36%; Mtb heat-shock: 6.938%
* COc1ccnc(N2CCN(C(=O)CCc3nccs3)CC2)n1 : Mtb heat-shock: 0.2304%
* O=C(O)C(F)(F)F.[H][C@@]12CCN(CC3CCCCC3)C[C@]1(C(=O)N1CCOCC1)CCO2 : Mtb heat-shock: -18.6%
* COc1ccc(CN2Cc3[nH]nc(C(=O)N(C)C)c3C2)cc1 : Mtb growth Cornell: 20.61%; Mtb heat-shock: -11.79%

The first 4 entries again:

SMILES,Mtb growth Cornell,Mtb heat-shock
CS(=O)(=O)N1CCC2(CC1)CN(CCn1cccn1)C(=O)CO2,-17.23,-2.767
CC(C)n1c(=O)nc2n1C(=O)N(c1ccc(Br)cc1)C2,17.32,17.46
CCCc1nc(N2CCN(CC)CC2)c2c(n1)c(C)nn2CC,19.74,-31.53
[H][C@@]12CCN(S(C)(=O)=O)C[C@@]1([H])O[C@H](c1ccnc(C)n1)C2,-22.08,7.506